Measured values taken from paper PMC12514575.
No constants are given. Whether binding was seen depends on the method and setting. Binding seen in cells or lysates may run through a third protein. A yes stands for co-enrichment or nearness to the bait. Other partners may have been found. Sequences can lack the tags named with a protein.

Biological target: T1, FLAG-tagged WT full-length DCAF13 (DDB1- and CUL4-associated factor 13) (UniProt Q9NV06)
T1 sequence: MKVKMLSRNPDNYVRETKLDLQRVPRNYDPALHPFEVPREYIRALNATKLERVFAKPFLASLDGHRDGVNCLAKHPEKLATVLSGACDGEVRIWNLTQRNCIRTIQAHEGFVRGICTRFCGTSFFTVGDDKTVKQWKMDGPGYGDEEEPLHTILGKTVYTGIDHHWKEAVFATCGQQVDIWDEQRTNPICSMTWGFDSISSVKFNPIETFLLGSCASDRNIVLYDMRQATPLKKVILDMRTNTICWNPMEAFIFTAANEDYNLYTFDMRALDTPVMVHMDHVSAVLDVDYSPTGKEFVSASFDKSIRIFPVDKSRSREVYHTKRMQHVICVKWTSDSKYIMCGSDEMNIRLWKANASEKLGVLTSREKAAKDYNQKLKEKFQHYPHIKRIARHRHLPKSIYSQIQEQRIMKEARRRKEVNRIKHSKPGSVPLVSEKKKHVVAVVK
Experiment: affinity purification with mass spectrometry; lysate of A549 cells transfected with FLAG-DCAF13; anti-FLAG antibody on Protein A/G magnetic beads, overnight at 4 °C, 10 washes with PBS + 0.5% Tween-20; SDS-PAGE, LC-MS/MS; IgG as control

binding: binds
B1: TAF1A, a subunit of selective factor 1 (SL1) (protein, UniProt Q15573 1-450)
chain: MSDFSEELKGPVTDDEEVETSVLSGAGMHFPWLQTYVETVAIGGKRRKDFAQTTSACLSFIQEALLKHQWQQAAEYMYSYFQTLEDSDSYKRQAAPEIIWKLGSEILFYHPKSNMESFNTFANRMKNIGVMNYLKISLQHALYLLHHGMLKDAKRNLSEAETWRHGENTSSREILINLIQAYKGLLQYYTWSEKKMELSKLDKDDYAYNAVAQDVFNHSWKTSANISALIKIPGVWDPFVKSYVEMLEFYGDRDGAQEVLTNYAYDEKFPSNPNAHIYLYNFLKRQKAPRSKLISVLKILYQIVPSHKLMLEFHTLLRKSEKEEHRKLGLEVLFGVLDFAGCTKNITAWKYLAKYLKNILMGNHLAWVQEEWNSRKNWWPGFHFSYFWAKSDWKEDTALACEKAFVAGLLLGKGCRYFRYILKQDHQILGKKIKRMKRSVKKYSIVNPRL
